PubChem BioAssay AID1259405 | NCATS, 2018

Screen: 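Mouse-designed siRNAs used to find CHO productivity engineering targets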 (primary screen)
Cells: Chinese hamster CHO-K1 ovary cells with stable secreted eGFP expression
Knock-down reagent: single siRNA against mouse genes, 0.8 pmol siRNA per well (2 µl of 400 nM stock)
Duration: 3 days
Measurement: 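Per-well intracellular GFP measured by laser scanning cytometry, plus viability from ATP luminescence, each relative to plate median of non-targeting control wells, in %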
Reading the numbers: GFP, % of control: higher = more GFP per well, higher productivity; viability (ATP), % of control: higher = more viable cells (more ATP)
Rule for the call: 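a knock-down is called active if GFP reaches 120% or more of non-targeting control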
The whole screen tested about 50,000 reagents; shown is a part drawn at random. In the full data, about 4,000 (8%) got an active call. 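Mouse siRNA library applied to hamster cells; one well for each siRNA.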 Reagents against one gene are numbered here.

no.	gene knocked down	reagent no.	GFP, % of control	viability (ATP), % of control	call
1	Gng8 (guanine nucleotide binding protein (G protein), gamma 8)	1	79.8	81.8	inactive
2	Gng8 (guanine nucleotide binding protein (G protein), gamma 8)	2	187	101	active
3	Gng8 (guanine nucleotide binding protein (G protein), gamma 8)	3	114	53.8	inactive
4	Rab5c (RAB5C, member RAS oncogene family)	1	90.1	56.4	inactive
5	Rab5c (RAB5C, member RAS oncogene family)	2	77.7	74.3	inactive
6	Rab5c (RAB5C, member RAS oncogene family)	3	35.7	54.2	inactive
7	Spr (sepiapterin reductase)	1	71.9	97.7	inactive
8	Spr (sepiapterin reductase)	2	77.8	84.8	inactive
9	Spr (sepiapterin reductase)	3	80.5	80.5	inactive
10	Dynlt2b (dynein light chain Tctex-type 2B)	1	42.8	59.9	inactive
11	Dynlt2b (dynein light chain Tctex-type 2B)	2	59.8	78.6	inactive
12	Dynlt2b (dynein light chain Tctex-type 2B)	3	50.7	50.9	inactive
13	Esyt2 (extended synaptotagmin-like protein 2)	1	64.1	65.7	inactive
14	Esyt2 (extended synaptotagmin-like protein 2)	2	82.6	59.4	inactive
15	Esyt2 (extended synaptotagmin-like protein 2)	3	78.9	75.4	inactive
16	Kcnu1 (potassium channel, subfamily U, member 1)	1	129	80	active
17	Kcnu1 (potassium channel, subfamily U, member 1)	2	154	94.8	active
18	Kcnu1 (potassium channel, subfamily U, member 1)	3	57.5	83.1	inactive
19	Grcc10 (gene rich cluster, C10 gene)	1	65.2	62.5	inactive
20	Grcc10 (gene rich cluster, C10 gene)	2	70.7	55.1	inactive
21	Grcc10 (gene rich cluster, C10 gene)	3	68.2	77.3	inactive
22	Sapcd1 (suppressor APC domain containing 1)	1	40	41.7	inactive
23	Sapcd1 (suppressor APC domain containing 1)	2	53.9	82.4	inactive
24	Sapcd1 (suppressor APC domain containing 1)	3	60.1	66.6	inactive
25	Cyp2c39 (cytochrome P450, family 2, subfamily c, polypeptide 39)	1	48.2	53.9	inactive
26	Cyp2c39 (cytochrome P450, family 2, subfamily c, polypeptide 39)	2	92.8	86.1	inactive
27	Cyp2c39 (cytochrome P450, family 2, subfamily c, polypeptide 39)	3	71.7	93	inactive
28	Serpinb3a	1	87.1	105	inactive
29	Serpinb3a	2	92.8	96.7	inactive
30	Serpinb3a	3	86.6	85.3	inactive
31	Lin28a (lin-28 homolog A)	1	60	54.8	inactive
32	Lin28a (lin-28 homolog A)	2	59	80.4	inactive
33	Lin28a (lin-28 homolog A)	3	64	63.7	inactive
34	Thyn1 (thymocyte nuclear protein 1)	1	37.3	44.4	inactive
35	Thyn1 (thymocyte nuclear protein 1)	2	54.3	101	inactive
36	Thyn1 (thymocyte nuclear protein 1)	3	92.4	96.7	inactive
37	Or8b39 (olfactory receptor family 8 subfamily B member 39)	1	137	60.5	active
38	Or8b39 (olfactory receptor family 8 subfamily B member 39)	2	91.4	73.7	inactive
39	Or8b39 (olfactory receptor family 8 subfamily B member 39)	3	54.7	59.6	inactive
40	Pfn1 (profilin 1)	1	120	97.9	inactive
41	Pfn1 (profilin 1)	2	105	47.7	inactive
42	Pfn1 (profilin 1)	3	84.9	105	inactive
43	Scml4 (Scm polycomb group protein like 4)	1	34.4	61.1	inactive
44	Scml4 (Scm polycomb group protein like 4)	2	59.6	88.6	inactive
45	Scml4 (Scm polycomb group protein like 4)	3	57.6	56.6	inactive
46	Ano1 (anoctamin 1, calcium activated chloride channel)	1	34.2	28.8	inactive
47	Ano1 (anoctamin 1, calcium activated chloride channel)	2	72.4	94.1	inactive
48	Ano1 (anoctamin 1, calcium activated chloride channel)	3	93.8	82.9	inactive
49	Slc45a3	1	45.4	49.1	inactive
50	Slc45a3	2	67.4	104	inactive
51	Slc45a3	3	65.7	84.8	inactive
52	Or1e23 (olfactory receptor family 1 subfamily E member 23)	1	66.2	70	inactive
53	Or1e23 (olfactory receptor family 1 subfamily E member 23)	2	44.2	55.6	inactive
54	Or1e23 (olfactory receptor family 1 subfamily E member 23)	3	41.9	103	inactive
55	Mtdh (metadherin)	1	37	66.7	inactive
56	Mtdh (metadherin)	2	46.1	83.4	inactive
57	Mtdh (metadherin)	3	89.7	61.8	inactive
58	Elf5 (E74-like factor 5)	1	43.3	58	inactive
59	Elf5 (E74-like factor 5)	2	58.1	72	inactive
60	Elf5 (E74-like factor 5)	3	71.2	57.8	inactive
61	Ift56 (intraflagellar transport 56)	1	88.8	70.1	inactive
62	Ift56 (intraflagellar transport 56)	2	73.2	74.3	inactive
63	Ift56 (intraflagellar transport 56)	3	59	74.9	inactive
64	Kcnv2 (potassium channel, subfamily V, member 2)	1	71.9	91.4	inactive
65	Kcnv2 (potassium channel, subfamily V, member 2)	2	92.2	102	inactive
66	Kcnv2 (potassium channel, subfamily V, member 2)	3	84.2	69.3	inactive
67	Zfp217 (zinc finger protein 217)	1	87.6	110	inactive
68	Zfp217 (zinc finger protein 217)	2	66.2	71.5	inactive
69	Zfp217 (zinc finger protein 217)	3	74.3	95	inactive
70	Prelp (proline arginine-rich end leucine-rich repeat)	1	119	90.4	inactive
71	Prelp (proline arginine-rich end leucine-rich repeat)	2	66	76	inactive
72	Prelp (proline arginine-rich end leucine-rich repeat)	3	66.1	41.5	inactive
73	Zfp804a (zinc finger protein 804A)	1	92.7	93	inactive
74	Zfp804a (zinc finger protein 804A)	2	36.4	35	inactive
75	Zfp804a (zinc finger protein 804A)	3	74.5	89.8	inactive
76	Fitm2 (fat storage-inducing transmembrane protein 2)	1	74.5	84.5	inactive
77	Fitm2 (fat storage-inducing transmembrane protein 2)	2	113	97.7	inactive
78	Fitm2 (fat storage-inducing transmembrane protein 2)	3	102	97.6	inactive
79	Rpl36 (ribosomal protein L36)	1	45.3	55.5	inactive
80	Rpl36 (ribosomal protein L36)	2	53.1	41.5	inactive
81	Rpl36 (ribosomal protein L36)	3	84.6	68.1	inactive
82	LTO1 (ABCE maturation factor)	1	113	58.9	inactive
83	LTO1 (ABCE maturation factor)	2	74.7	51.7	inactive
84	LTO1 (ABCE maturation factor)	3	116	78.8	inactive
85	Nfat5 (nuclear factor of activated T cells 5)	1	114	116	inactive
86	Nfat5 (nuclear factor of activated T cells 5)	2	114	95	inactive
87	Nfat5 (nuclear factor of activated T cells 5)	3	95.4	118	inactive
88	Aaas (achalasia, adrenocortical insufficiency, alacrimia)	1	72.7	63.6	inactive
89	Aaas (achalasia, adrenocortical insufficiency, alacrimia)	2	68.7	53.9	inactive
90	Aaas (achalasia, adrenocortical insufficiency, alacrimia)	3	85.8	90.3	inactive
91	Scgb2b27 (secretoglobin, family 2B, member 27)	1	53.9	77.9	inactive
92	Scgb2b27 (secretoglobin, family 2B, member 27)	2	60	67	inactive
93	Scgb2b27 (secretoglobin, family 2B, member 27)	3	91.1	89.9	inactive
94	Magea4 (MAGE family member A4)	1	106	67.5	inactive
95	Magea4 (MAGE family member A4)	2	72.6	81.4	inactive
96	Magea4 (MAGE family member A4)	3	93.1	89.4	inactive
97	Dhdds (dehydrodolichyl diphosphate synthase)	1	86.1	93	inactive
98	Dhdds (dehydrodolichyl diphosphate synthase)	2	65.4	113	inactive
99	Dhdds (dehydrodolichyl diphosphate synthase)	3	86.2	96.3	inactive
100	Nkx3-1 (NK3 homeobox 1)	1	67	69	inactive
101	Nkx3-1 (NK3 homeobox 1)	2	68.7	68	inactive
102	Nkx3-1 (NK3 homeobox 1)	3	63	60.2	inactive
103	Prkd2 (protein kinase D2)	1	85.3	83.2	inactive
104	Rgs19 (regulator of G-protein signaling 19)	1	106	57.1	inactive
105	Rgs19 (regulator of G-protein signaling 19)	2	89.3	66.9	inactive
106	Rgs19 (regulator of G-protein signaling 19)	3	42.9	49.5	inactive
107	Dnase1l3 (deoxyribonuclease 1-like 3)	1	76.4	77.3	inactive
108	Dnase1l3 (deoxyribonuclease 1-like 3)	2	110	103	inactive
109	Dnase1l3 (deoxyribonuclease 1-like 3)	3	57.1	51	inactive

Reformatted: entries from further up
{"gene knocked down": "Rab5c (RAB5C, member RAS oncogene family)", "reagent no.": 1, "GFP, % of control": 90.1, "viability (ATP), % of control": 56.4, "call": "inactive"}
{"gene knocked down": "Rab5c (RAB5C, member RAS oncogene family)", "reagent no.": 2, "GFP, % of control": 77.7, "viability (ATP), % of control": 74.3, "call": "inactive"}
{"gene knocked down": "Rab5c (RAB5C, member RAS oncogene family)", "reagent no.": 3, "GFP, % of control": 35.7, "viability (ATP), % of control": 54.2, "call": "inactive"}
{"gene knocked down": "Spr (sepiapterin reductase)", "reagent no.": 1, "GFP, % of control": 71.9, "viability (ATP), % of control": 97.7, "call": "inactive"}
{"gene knocked down": "Spr (sepiapterin reductase)", "reagent no.": 2, "GFP, % of control": 77.8, "viability (ATP), % of control": 84.8, "call": "inactive"}
{"gene knocked down": "Spr (sepiapterin reductase)", "reagent no.": 3, "GFP, % of control": 80.5, "viability (ATP), % of control": 80.5, "call": "inactive"}
{"gene knocked down": "Dynlt2b (dynein light chain Tctex-type 2B)", "reagent no.": 1, "GFP, % of control": 42.8, "viability (ATP), % of control": 59.9, "call": "inactive"}
{"gene knocked down": "Dynlt2b (dynein light chain Tctex-type 2B)", "reagent no.": 2, "GFP, % of control": 59.8, "viability (ATP), % of control": 78.6, "call": "inactive"}
{"gene knocked down": "Dynlt2b (dynein light chain Tctex-type 2B)", "reagent no.": 3, "GFP, % of control": 50.7, "viability (ATP), % of control": 50.9, "call": "inactive"}
{"gene knocked down": "Esyt2 (extended synaptotagmin-like protein 2)", "reagent no.": 1, "GFP, % of control": 64.1, "viability (ATP), % of control": 65.7, "call": "inactive"}
{"gene knocked down": "Esyt2 (extended synaptotagmin-like protein 2)", "reagent no.": 2, "GFP, % of control": 82.6, "viability (ATP), % of control": 59.4, "call": "inactive"}
{"gene knocked down": "Esyt2 (extended synaptotagmin-like protein 2)", "reagent no.": 3, "GFP, % of control": 78.9, "viability (ATP), % of control": 75.4, "call": "inactive"}
{"gene knocked down": "Kcnu1 (potassium channel, subfamily U, member 1)", "reagent no.": 1, "GFP, % of control": 129, "viability (ATP), % of control": 80, "call": "active"}
{"gene knocked down": "Kcnu1 (potassium channel, subfamily U, member 1)", "reagent no.": 2, "GFP, % of control": 154, "viability (ATP), % of control": 94.8, "call": "active"}
{"gene knocked down": "Kcnu1 (potassium channel, subfamily U, member 1)", "reagent no.": 3, "GFP, % of control": 57.5, "viability (ATP), % of control": 83.1, "call": "inactive"}
{"gene knocked down": "Grcc10 (gene rich cluster, C10 gene)", "reagent no.": 1, "GFP, % of control": 65.2, "viability (ATP), % of control": 62.5, "call": "inactive"}
{"gene knocked down": "Grcc10 (gene rich cluster, C10 gene)", "reagent no.": 2, "GFP, % of control": 70.7, "viability (ATP), % of control": 55.1, "call": "inactive"}
{"gene knocked down": "Grcc10 (gene rich cluster, C10 gene)", "reagent no.": 3, "GFP, % of control": 68.2, "viability (ATP), % of control": 77.3, "call": "inactive"}
